Experiment [1] addresses T1, AIMP2-DX2 protein (human) (UniProt Q13155).
T1 sequence: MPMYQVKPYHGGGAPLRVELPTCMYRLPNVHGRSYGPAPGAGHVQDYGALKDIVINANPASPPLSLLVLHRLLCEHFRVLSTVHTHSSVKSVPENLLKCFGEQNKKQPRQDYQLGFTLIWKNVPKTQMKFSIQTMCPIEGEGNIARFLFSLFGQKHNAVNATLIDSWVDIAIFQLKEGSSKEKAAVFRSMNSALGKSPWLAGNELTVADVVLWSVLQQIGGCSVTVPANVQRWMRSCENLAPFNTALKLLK
Briefly: Western blot of SW620 cell lysate, periplasmic extract as primary antibody (data not shown). Background: A western blot detects proteins with antibodies after separation by electrophoresis.

Experiment [2] deals with T1, AIMP2-DX2 protein (human). Briefly: Western blot of H460 cell lysate.

These are yes or no findings as the source states them, for the method shown. Some results given as binding are weak or reduced against the parent protein; the word gives no strength. Ends that are not written are not given here.

B1: H5 Fab (Fab, V domains shown)
VH: QEQLVESGGGLVTPGGTLTLTCTASGFTISSYHMTWVRQAPGKGLEWIGVISNSGGTSYANWAKGRFTISKTSTTVDLKITSPTTEDTATYFCVRGVPGINSNLWGQGTLVTISS
VL: AQVLTQTPSSVSAAVGGTVTINCQSSQSVYSGNWLAWYQQKPGQPPKLLIYSTSTLASGVPSRFKGSGSGTQFTLTVSDLECDDAATYYCAGDYDGYKNAFGGGTKVVVKR
notes: Expressed from pComb3XTT in E. coli and used as periplasmic extract; Detected with anti-HA tag or anti-human Fab secondary antibody, so a tag may be present; also called antibody (Fab) of clone H5; rabbit/human chimeric Fab
For the molecule B1, the binding entry in experiment [1] and in experiment [2] was “binds” throughout.
